Experimental findings from article PMC9580158 are described below.

Protein sequences, listed by entry. Tags and fused reporters are not part of them. Residues count along the entry.
UniProt P35869, residues 11-848: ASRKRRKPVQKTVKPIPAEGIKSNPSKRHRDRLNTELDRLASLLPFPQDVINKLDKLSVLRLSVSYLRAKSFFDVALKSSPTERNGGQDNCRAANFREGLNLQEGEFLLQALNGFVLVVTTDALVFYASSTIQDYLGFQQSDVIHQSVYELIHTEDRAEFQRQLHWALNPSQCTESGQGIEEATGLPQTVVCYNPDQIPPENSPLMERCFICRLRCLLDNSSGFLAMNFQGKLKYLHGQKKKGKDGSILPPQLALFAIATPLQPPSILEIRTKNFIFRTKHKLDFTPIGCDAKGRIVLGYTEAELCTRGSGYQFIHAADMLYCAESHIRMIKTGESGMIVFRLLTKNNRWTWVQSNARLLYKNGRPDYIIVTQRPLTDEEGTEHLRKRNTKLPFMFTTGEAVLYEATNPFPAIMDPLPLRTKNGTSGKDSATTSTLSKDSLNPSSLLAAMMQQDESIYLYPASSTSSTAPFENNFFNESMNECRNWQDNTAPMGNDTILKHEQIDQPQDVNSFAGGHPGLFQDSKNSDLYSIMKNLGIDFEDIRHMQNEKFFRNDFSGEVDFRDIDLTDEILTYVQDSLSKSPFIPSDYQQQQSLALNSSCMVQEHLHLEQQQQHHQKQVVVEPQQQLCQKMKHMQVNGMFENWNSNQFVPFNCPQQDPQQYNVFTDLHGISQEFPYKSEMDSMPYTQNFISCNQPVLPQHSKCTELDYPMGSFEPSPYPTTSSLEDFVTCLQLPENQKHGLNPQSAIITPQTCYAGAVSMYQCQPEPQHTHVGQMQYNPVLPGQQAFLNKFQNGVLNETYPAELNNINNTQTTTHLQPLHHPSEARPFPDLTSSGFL

Assay [1] concerns the target T1, Flag-tagged NUPR1 (nuclear protein 1) (UniProt O60356).
T1 sequence: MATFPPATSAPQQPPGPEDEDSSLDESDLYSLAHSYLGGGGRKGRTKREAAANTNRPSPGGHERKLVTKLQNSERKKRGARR
In words: co-IP; anti-Flag (control: IgG) on lysates of MHCC-97H/MHCC-97L ectopically expressing Flag-tagged NUPR1, RIPA lysis buffer, protein A/G agarose, western blot for Flag-NUPR1 and AhR.

For assay [2], the target named is aryl hydrocarbon receptor (AhR) (human (endogenous in MHCC-97H, MHCC-97L, QGY-7701, Hep3B)) (UniProt P35869). The assay can be described thus: co-IP; reciprocal: anti-AhR (control: IgG) on cell lysates, RIPA lysis buffer, protein A/G agarose, western blot for NUPR1 and AhR. (Immunoblotting shows a protein as a band on a membrane.)
Assay [3] shares this target. In words: co-IP; endogenous proteins: anti-AhR on lysates of QGY-7701 and Hep3B cells, RIPA lysis buffer, protein A/G agarose, western blot.

These are yes or no findings as the source states them, for the method shown. In cells and extracts the contact can be indirect. Some results given as binding are weak or reduced against the parent protein; the word gives no strength. For part of these data: Sequences can lack the tags named with a protein.

On to “aryl hydrocarbon receptor (AhR) (from UniProt P35869 11-848)”, for which, in assay [1], the binding result is “binds”.

B1: Flag-tagged NUPR1 (nuclear protein 1) (protein, UniProt O60356 1-82)
chain: MATFPPATSAPQQPPGPEDEDSSLDESDLYSLAHSYLGGGGRKGRTKREAAANTNRPSPGGHERKLVTKLQNSERKKRGARR
As for B1, the binding entry in assay [2] is given as “binds”.

B2: NUPR1 (nuclear protein 1), endogenous (protein, UniProt O60356 1-82)
chain: MATFPPATSAPQQPPGPEDEDSSLDESDLYSLAHSYLGGGGRKGRTKREAAANTNRPSPGGHERKLVTKLQNSERKKRGARR
Take B2: the binding result in assay [3] is “binds”.
